Data from PubChem BioAssay AID1671190 (National Center for Advancing Translational Sciences (NCATS), 2021).
The campaign covered roughly 580,000 compounds. About 6,100 (1.1%) were called active. Roughly 15% stayed inconclusive and do not appear here. Calls come from the whole dose curve; as a rule, active = well fitted inhibition curve with a large enough effect; inconclusive = small, poorly fitted or top-dose-only effect, or another doubt; inactive = no such curve, though single readings can be large or run the other way. The entries are a selection whose mix differs from that of the whole data set. Where no call is shown, the source filed none. Some structures have more than one record in an assay (separate samples or runs), and their calls can disagree.

Chains of the proteins cited; added tags and fusions are not shown.
UniProt P18054, whole entry, looked up: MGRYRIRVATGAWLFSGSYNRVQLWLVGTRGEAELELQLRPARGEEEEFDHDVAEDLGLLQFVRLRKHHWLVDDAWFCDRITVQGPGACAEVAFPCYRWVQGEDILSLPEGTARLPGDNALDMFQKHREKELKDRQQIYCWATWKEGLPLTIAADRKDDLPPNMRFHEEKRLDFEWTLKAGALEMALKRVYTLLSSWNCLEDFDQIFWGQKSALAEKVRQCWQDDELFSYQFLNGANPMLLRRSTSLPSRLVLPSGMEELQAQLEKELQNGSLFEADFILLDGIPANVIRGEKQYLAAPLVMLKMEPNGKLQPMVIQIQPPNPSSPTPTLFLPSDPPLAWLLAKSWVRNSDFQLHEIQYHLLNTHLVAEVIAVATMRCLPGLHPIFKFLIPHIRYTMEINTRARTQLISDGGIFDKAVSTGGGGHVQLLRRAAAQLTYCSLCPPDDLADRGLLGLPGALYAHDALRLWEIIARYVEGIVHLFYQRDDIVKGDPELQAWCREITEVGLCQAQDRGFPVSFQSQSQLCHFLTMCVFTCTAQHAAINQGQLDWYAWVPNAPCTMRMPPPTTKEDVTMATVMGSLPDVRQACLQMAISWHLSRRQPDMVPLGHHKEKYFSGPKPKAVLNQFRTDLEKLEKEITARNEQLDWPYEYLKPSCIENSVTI

target: Polyunsaturated fatty acid lipoxygenase ALOX12 (Homo sapiens) (UniProt P18054); test: Primary qHTS assay for inhibitors of human arachidonate 12S-lipoxygenase (ALOX12): Round 2; details: purified 12hLO, xylenol orange hydroperoxide absorbance; activity change, negative = inhibition: at 0.00344 µM (top of the series) unless noted
Text: Assay Provider: Theodore R. Holman Ph.D. University of California, Santa Cruz, California Human lipoxygenase 12hLO is a member of the closely related lipoxygenase family of enzymes which catalyze the site-specific oxidation of arachidonic acid to various hormone precursor molecules and as such is a candidate for drug development in a variety of disease areas, such as cancer and inflammation. Inhibition of 12hLO activity was screened by utilizing arachidonic acid as a substrate. The extent of hydroperoxide product formation was measured by a secondary chromogenic reaction in which xylenol orange (XO, Sigma-Aldrich, cat. number 39,818-7) reacts with the ferric ions produced from the reaction between the hydroperoxide and ferrous ions. The Fe (III)-XO complex is characterized with red-shifted absorbance at 560 nm. A purified preparation of human 12hLO was supplied by Dr. Holman laboratory, University of California, Santa Cruz.
PROTOCOL TABLE SEQUENCE No. (e.g., 1, 2, 3, etc.); […] (e.g., Cells, Incubation, Reagent, etc.); VALUE; DESCRIPTION 1; Enzyme; 3 uL; 150 nM 12hLO enzyme solution dispensed in 1536-well Greiner black, clear bottom plates. 2; Compound; 23 nL; compounds and controls were added. 3; Incubate; 15 min; room temperature. 4; Substrate; 1 uL; 40 uM arachidonic acid (final concentration). 5; Incubate; 30 min; room temperature. 6; Reagent; 4 uL; Fe-XO solution was added to each well. 7; Incubation; 30 min; room temperature 8; Detector; absorbance; Read 1 at 405 nm absorbance using ViewLux (Perkin-Elmer) CCD imager. 9; Detector; absorbance; Read 2 at 573 nm absorbance using ViewLux (Perkin-Elmer) CCD imager. NOTES (numbers refer to sequence above) 1; 150 nM 12hLO (final concentration) in buffer solution (25 mM Hepes, 0.01% Triton X-100, pH 7.0) was dispensed in columns 1, 2, 5-48. Column 1 is neutral (100% activity). Buffer only was dispensed in columns 3 and 4 as no enzyme negative controls. The plates were covered with metal lids with gas-exchange holes. 2; Compounds were pin transferred via a Kalypsys Pin Tool (Wako USA) in column 5-48. Control compound was transferred in column 2, titration of nordihydroguaiaretic acid (NDGA, Sigma-Aldrich, N5023) with top concentration of 20 mM in DMSO then 1:3 dilution in duplicate. Dilution factor of 23 nL into 4 uL final assay volume. 3; Covered assay plates were incubated for 15 min at room temperature. 4; Substrate was added to start the reaction; 40 uM arachidonic acid (Sigma-Aldrich, St. Louis, MO) was dispensed throughout the plate. 6; Chromogenic detection reagent solution (divalent iron/xylenol orange, Fe-XO) was added to each well: 200 uM xylenol orange, 300 uM ferrous ammonium sulfate prepared freshly in 50 mM sulfuric acid. 8, 9; Two absorbance readouts were obtained at 405 nm and at 573 nm using a ViewLux high-throughput CCD plate imager (Perkin-Elmer). The 573 to 405 (Read 2 / Read 1) absorbance ratio was used to compute reaction progress.
% is set by controls: 0 for no effect and ±100 for the full control effect; potency is the fitted concentration of half-maximal effect.

SMILES	Potency	activity change, negative = inhibition
COc1ccc(/C=C/C(=O)c2cc3c(cc2N)OCO3)cc1	active: 35.5 µM	
Cc1cccn2c(=O)c(-c3nnn[nH]3)cnc12		-18% [at 0.00147 µM]
O=C1N=c2ccc(Br)cc2=C1c1sc(=S)n(NS(=O)(=O)c2ccccc2)c1O	active: 35.5 µM	
CC1(C)OC(=O)Nc2ccc(Br)cc21		-1.05%
CC(C)NS(=O)(=O)c1ccc(C(=O)NCc2ccc(-c3nc4ccccc4s3)o2)cc1	active: 25.1 µM	
CC(=O)OC[C@H]1O[C@@H](OC(C)=O)[C@H](OC(C)=O)[C@@H]1OC(C)=O		4.42%
O=C1C(O)=C(O)C(=O)C(O)=C1O		20.3%
Cc1ccc(-c2csc(/C=C/c3cccc(O)c3)n2)cc1	active: 7.08 µM	
COC(=O)CCCn1cc(CN2CC(N3CCN(Cc4cccc(C)c4)CC3)CS2(=O)=O)nn1 (configuration not stated)	active: 7.08 µM	
N#CC1(c2ccc(F)cc2)CCC(=O)CC1		1.08%
CC[N+](CC)(CCNC(=O)C(=O)NCC[N+](CC)(CC)Cc1ccccc1Cl)Cc1ccccc1Cl		-17.5%
CCN(CC)S(=O)(=O)c1cccc(-c2n[nH]c(=S)n2CC(C)C)c1	active: 31.6 µM	
CC1=CC(=O)c2ccccc2C1=O		-7.59%
CCCCOC(=O)c1ccc(O)cc1		-0.81%
O=C1ON=C(c2cccc([N+](=O)[O-])c2)/C1=C/c1ccc(O)cc1	active: 7.94 µM	
CNCCCCOc1ccccc1Cc1ccccc1		20.7%
CCN(CC)CCCN(c1ccccc1)C1Cc2ccccc2C1		29.8%
CC(=O)c1ccc(OCc2coc(-c3cccc(F)c3)n2)cc1	active: 44.7 µM	
O=C(CCCCC(=O)Nc1c(I)cc(I)c(C(=O)O)c1I)Nc1c(I)cc(I)c(C(=O)O)c1I		-3.82%
COc1ccccc1N1CCN(CC(O)COc2cc(OC)c(OC)c(OC)c2)CC1 (configuration not stated)		-17.7%
Cc1c(F)c(N2CCNC(C)C2)cc2c1c(=O)c(C(=O)O)cn2C1CC1 (configuration not stated)		-11.8%
CCN1CCCC1=O		-15.3%

SMILES	Potency	activity change, negative = inhibition
Cc1cc(OI)c(C(C)C)cc1-c1cc(C(C)C)c(OI)cc1C		-24.8%
C[C@@H]1O[C@@H](OC[C@H]2O[C@@H](Oc3c(-c4ccc(O)c(O)c4)oc4cc(O)cc(O)c4c3=O)[C@H](O)[C@@H](O)[C@@H]2O)[C@H](O)[C@H](O)[C@H]1O		-12.3%
Cc1c(/C=C(/C#N)c2ccccn2)cc(C#N)n1C	active: 35.5 µM	
Cc1ccc(/C=N/n2c(-c3ccccc3)csc2=S)cc1		34.1%
Cc1cc(C)c2oc(-c3ccc(C)c(NC(=O)/C=C/c4ccco4)c3)nc2c1	active: 50.1 µM	
O=C(OCc1ccccc1)c1ccc(O)cc1		-17.6%
C/C=C(/C(=C/C)c1ccc(OC(C)=O)cc1)c1ccc(OC(C)=O)cc1		-22.5%
CCOC(=O)c1oc2ccccc2c1CN1CCN(C)CC1	active: 35.5 µM	
CC(=O)CCC(=O)O		13.1%
CC(Cc1ccccc1)(NC(=O)CN)c1ccccc1 (configuration not stated)		-6.74%
Cc1cc(N)c2cc(NC(=O)Nc3ccc4nc(C)cc(N)c4c3)ccc2n1		-5.34%
CN(C)/N=N/c1nc[nH]c1C(N)=O		43%
CCCCOC(=O)c1ccc(N)cc1		10%
O=c1[nH]c(=O)c2[nH]c(=S)[nH]c2[nH]1	active: 0.708 µM	
NC(=O)Cc1cccc(C(=O)c2ccccc2)c1N		-12.5%
O=C(CCCl)NCc1ccccc1		-0.938%
COc1ccc([C@@H]2Sc3ccccc3NC(=O)[C@@H]2O)cc1		-35%
COC(=O)[C@H]1[C@H]2C[C@@H]3c4[nH]c5cc(OC)ccc5c4CCN3C[C@H]2C[C@@H](OC(=O)COc2ccc(OC)cc2)[C@@H]1OC		-32.2%
CC(C)COCC(CN(Cc1ccccc1)c1ccccc1)N1CCCC1 (configuration not stated)		22.7%
CCC(CC)(CC(=O)Nc1cccc(/C=C/c2nc(C3CCC3)cs2)c1)C(=O)O		-25.3%
CCOC(=O)[C@H](CCc1ccccc1)N[C@@H](C)C(=O)N1[C@H](C(=O)O)C[C@@H]2CCC[C@@H]21		17.4%
NS(=O)(=O)c1cc(C(=O)O)c(NCc2ccco2)cc1Cl		-28.2%

Exported bar-delimited: part of the list above
SMILES | Potency | activity change, negative = inhibition
Cc1cc(N)c2cc(NC(=O)Nc3ccc4nc(C)cc(N)c4c3)ccc2n1 |  | -5.34%
CN(C)/N=N/c1nc[nH]c1C(N)=O |  | 43%
CCCCOC(=O)c1ccc(N)cc1 |  | 10%
O=c1[nH]c(=O)c2[nH]c(=S)[nH]c2[nH]1 | active: 0.708 µM | 
NC(=O)Cc1cccc(C(=O)c2ccccc2)c1N |  | -12.5%
O=C(CCCl)NCc1ccccc1 |  | -0.938%

More results follow.

SMILES	Potency	activity change, negative = inhibition
Oc1ccc(Cl)cc1Cc1cc(Cl)ccc1O		10%
Cc1ccc(N2N=C(c3ccc(F)cc3)CC2c2ccco2)cc1 (configuration not stated)	active: 25.1 µM	
Cc1cc(C2CCCCC2)n(O)c(=O)c1		54.7%
CC1=C(C(=O)OC(C)C)C(c2cccc([N+](=O)[O-])c2)C(C(=O)OC2CN(C(c3ccccc3)c3ccccc3)C2)=C(N)N1 (configuration not stated)		0.098%
COc1ccc2[nH]cc(CCNc3ccnc(-c4cccc(NS(C)(=O)=O)c4)n3)c2c1	active: 39.8 µM	
COc1ccc2cc(C=O)ccc2c1		-18.2%
C/C=C/C(=O)N(CC)c1ccccc1C		24.4%
COc1cccc(F)c1-c1ccc(COc2ccc3c(cnn3CCC(=O)O)c2)cc1	active: 22.4 µM	
Cc1ccc(SCCNC(=S)Nc2ccc(F)cc2)cc1	active: 50.1 µM	
C#C[C@]1(O)CC[C@H]2[C@@H]3CCc4cc(OC5CCCC5)ccc4[C@H]3CC[C@@]21C		-18.8%
Cn1c(=O)c2[nH]cnc2n(C)c1=O		17.6%
Cc1ccc(O)c2ncccc12		15.8%
CCCCCCn1c(=O)c2c(ncn2C)n(C)c1=O		-32.7%
O=c1cc(-c2ccccc2)n(S(=O)(=O)c2ccccc2)o1	active: 10 µM	
CCOC(=O)c1ccc(NC(=O)c2c(NCc3sccc3C)sc3c2CCCCC3)cc1	active: 11.2 µM	
COc1cc(Cc2cnc(N)nc2N)cc(OC)c1OC		9.48%
CO[C@@]1(NC(=O)Cc2cccs2)C(=O)N2C(C(=O)O)=C(COC(N)=O)CS[C@@H]21		54.3%
CNCC[C@H](Oc1cccc2ccccc12)c1cccs1		32.1%
N#C/C(=C1\SCC(c2ccccc2Cl)S1)n1ccnc1 (configuration not stated)		27.5%
C[N+]1(C)CCCC(OC(=O)C(O)(c2ccccc2)c2ccccc2)C1 (configuration not stated)		-24.9%
O=C(CSc1n[nH]c(-c2ccccc2)n1)c1ccc(O)c(O)c1	active: 2.51 µM	
C=CC(=O)c1ccc2ccccc2c1	active: 17.8 µM	

SMILES	Potency	activity change, negative = inhibition
CCCCN(CCCC)C(C(N)=O)c1ccc(OC)cc1 (configuration not stated)		-16.2%
Cc1cccc(NCc2ccc(O)c3ncccc23)c1C	active: 5.62 µM	
O=C1C=CC(=O)C(C2=C3C(=O)N(CCc4ccccc4)CC(=O)N3CCC2)=C1	active: 39.8 µM	
Cc1ccc(S(=O)(=O)NC[C@H]2O[C@@H](CO)[C@@H](O)[C@H]2N2CCN(c3cccc(C(F)(F)F)c3)CC2)cc1	active: 15.8 µM	
CCCCCCCCCCCCOS(=O)(=O)O		-12.6%
CN1CCC(=C2c3ccccc3CC(=O)c3sccc32)CC1		-42.7%
CC(C)(Sc1cc(C(C)(C)C)c(O)c(C(C)(C)C)c1)Sc1cc(C(C)(C)C)c(O)c(C(C)(C)C)c1		-16.1%
CC1CCN(C(=S)NC(=O)c2ccc(C(C)(C)C)cc2)CC1	active: 31.6 µM	
CCCCCCC(=O)N(O)C1CC(=O)N(c2ccc(Cl)cc2)C1=O (configuration not stated)	active: 1.26 µM	
Cc1ccc(Nc2nc(NCC3CC3)nc3ccsc23)c(C)c1	active: 39.8 µM	
CC1(C)CC(=O)C2=C(C1)Nc1ccccc1NC2c1cccc(F)c1 (configuration not stated)	active: 11.2 µM	
N#C/C(=C/c1ccc(O)c(O)c1)C(=O)NCc1ccc(Cl)cc1	active: 25.1 µM	
CS(=O)(=O)CCNCc1ccc(-c2ccc3ncnc(Nc4ccc(OCc5cccc(F)c5)c(Cl)c4)c3c2)o1		27.8%
Cc1onc(-c2c(Cl)cccc2Cl)c1C(=O)Cl		10.3%
CCCCCC1(C)NC(=S)N(c2ccccc2)N1 (configuration not stated)	active: 0.794 µM	
CC(=O)NO		16.2%
C/C=C/C=N/NC(=O)c1ccncc1		-16.4%
Cc1cc2c(c(=O)n1CCN(C)C)C(c1ccc(Cl)cc1Cl)C(C#N)=C(N)O2 (configuration not stated)	active: 56.2 µM	
O=C(CN1C(=O)c2ccccc2S1(=O)=O)NCCSCc1c(F)cccc1Cl	active: 8.91 µM	
Cn1c(=O)c2c(ncn2CC(=O)O)n(C)c1=O		8.03%
CCCCCCCCCCC[C@@H](C[C@@H]1OC(=O)[C@H]1CCCCCC)OC(=O)[C@H](CC(C)C)NC=O		-11.1%
CSc1ccc(C(=O)c2[nH]c(=O)[nH]c2C)cc1		-13.9%

SMILES	Potency	activity change, negative = inhibition
COc1ccc2[nH]c3c(=O)n(CCCCC(=O)NCCN4CCCC4)c(=S)[nH]c3c2c1	active: 14.1 µM	
CCCCCCCCCCCCCCCC(=O)NCCO		4.5%
CN1CCN(C2=Nc3cc(Cl)ccc3Nc3ccccc32)CC1		-4.55%
CN(C)CCN1CCN(c2cccc(Cl)c2)C1=O		-3.25%
CCc1nnc(NS(=O)(=O)c2ccc(N)cc2)s1		30.8%
C/C(=N\NC(=O)c1cc2c(s1)CCC(C)C2)c1cccnc1 (configuration not stated)	active: 5.01 µM	
Cc1ccc(-c2ncc(Cl)cc2-c2ccc(S(C)(=O)=O)cc2)cn1		20.2%
NC12CC3CC(CC(C3)C1)C2		-13.7%
O=C(CN1C(=O)NC(c2ccc(Cl)cc2)C2=C1COC2=O)Nc1ccc(Cl)cc1F (configuration not stated)	active: 8.91 µM	
CCCN(CCc1cccs1)[C@H]1CCc2c(O)cccc2C1		23.1%
C[C@@H](c1ncncc1F)C(O)(Cn1cncn1)c1ccc(F)cc1F (some centres not stated)		11.3%
CN1CC(=O)NC1=N		-10.9%
Cc1c(C)c2c(c(C)c1OC(=O)CCC(=O)OCCO)CC[C@@](C)(CCC[C@H](C)CCC[C@H](C)CCCC(C)C)O2		-75.5%
O=C1Cc2cc(CCN3CCN(c4nsc5ccccc45)CC3)c(Cl)cc2N1		5.27%
COc1cc(S(N)(=O)=O)cc(C(=O)O)c1OC		-31.7%
CCN[C@H]1C[C@H](C)S(=O)(=O)c2sc(S(N)(=O)=O)cc21		-16.6%
Cc1ccc(-c2ccccc2C#N)cc1		16.5%
O=C(O)Cc1cccc(-c2cc(CCCCCCc3ccc(O[C@H]4O[C@H](CO)[C@@H](O)[C@H](O)[C@@H]4O)c(-c4cccc(CC(=O)O)c4)c3)ccc2O[C@H]2O[C@H](CO)[C@@H](O)[C@H](O)[C@@H]2O)c1		-15.3% [at 37.5 pM]
